# The list shows a part of the results. Shown are side measurements of this screen, not its main read-out; they come without a call. Most of these compounds were active or inconclusive in the main read-out, so they are no random draw. Words in brackets tell the shape of the fitted curve; partial curves, single points and poor fits give uncertain potencies.
# Experiment: qHTS Assay to Find Inhibitors of Chronic Active B-Cell Receptor Signaling
# Details: ABC-DLBCL IkBa-CBG/CBR reporter, luminescence ratio (green luciferase fused to IkBa over red control in TMD8 lymphoma cells), 4 h
# In short: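 TMD8 ABC-DLBCL cells carrying doxycycline-inducible green luciferase fused to IkappaBalpha plus unfused red luciferase were exposed to compounds (up to 46 uM) for 4 hrs at 37C. Activity came from the overlap-corrected green/red luminescence ratio.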
# [1] = measured here: CBR red luminescence, cell number
SMILES,AC50 [1],AC50 (measured here: IkBa-CBG green luminescence)
COc1cccc2cc(C(=O)CS(=O)(=O)c3ccc(C)cc3)c(=O)oc12,"1.26 µM [rising, full curve, poor fit]",–
Cc1ccc2nc(NC(=O)C3CCCN(S(=O)(=O)c4cnc[nH]4)C3)sc2c1 (stereo unspecified),"6.51 µM [falling, partial curve]",–
Cc1ccccc1N(C(=O)c1csnn1)C(C(=O)NC(C)(C)C)c1ccncc1 (stereo unspecified),"6.31 µM [rising, single point]",–
Oc1ccccc1C1CCCCC1c1ccccc1 (stereo unspecified),"15.8 µM [rising, partial curve, poor fit]",–
Cc1ccc2nc(N(CCCN(C)C)C(=O)c3ccc4ncsc4c3)sc2c1,"20 µM [falling, partial curve, poor fit]",–
O=C(O)c1ccc(N/N=C/c2cn(Cc3ccccc3F)c3ccccc23)cc1,–,"0.631 µM [rising, full curve, poor fit]"
COc1ccccc1NC1=C(Cl)C(=O)OC1OC(=O)c1ccco1 (stereo unspecified),"11.2 µM [falling, partial curve, poor fit]",–
CCOC(=O)c1c(C)n(C)c2cc(CN(C)C)c(O)c(S(=O)(=O)c3ccccc3)c12,"35.5 µM [falling, single point]",–
Cc1ccc(C2NC(=NCc3ccccc3)Nc3nc(C)cc(=O)n32)cc1 (stereo unspecified),"10 µM [falling, partial curve]",–
CCOc1ccc(/C=N/NC(=O)Nc2ccccc2)cc1,"1.58 µM [rising, partial curve, poor fit]",–
Cc1ccc(C(=O)CN(C(=O)c2ccc(Cl)c(Cl)c2)N2C(=O)C3CCCCC3C2=O)cc1C (stereo unspecified),"4.11 µM [rising, partial curve, poor fit]",–
CS(=O)(=O)N1CCN(C(=O)c2ccc(-c3ccccc3)cc2)CC1,"4.11 µM [falling, full curve]",–
Cc1ccc(NC(=O)CSC2=NCCN2)cc1,"20.6 µM [rising, partial curve]",–
O=C(Cc1cccs1)Nc1ccc(-c2nc3ccccc3[nH]2)cc1,"7.94 µM [falling, partial curve, poor fit]",–
CCC(=O)Nc1nnc(Sc2ccc(N(C)C)cc2)s1,"2.82 µM [rising, full curve]",–
CCC1=C(OC(=O)N(CC)CC)N2C(=O)OC(=NCCc3c[nH]c4ccccc34)[C@]2(C)[C@H]2C1=CC[C@H]1C(=O)N(CC(=O)OC)C(=O)[C@H]12,"31.6 µM [falling, single point]",–
COC(=O)c1sccc1-c1ccc(C(=O)Nc2cccnc2)o1,"1.26 µM [falling, full curve, poor fit]",–
O=C(CCc1nnc(-c2ccc(-c3ccccc3)cc2)o1)NCCc1ccccn1,"11.2 µM [falling, partial curve, poor fit]",–
NS(=O)(=O)c1ccc(CCNC(=O)c2ccccc2Cc2ccccc2)cc1,"10 µM [falling, partial curve, poor fit]",–
CC(=O)n1cc(/C=N/NC(=O)c2cccc(O)c2)c2ccccc21,"11.2 µM [falling, partial curve, poor fit]",–
O=C1N=c2ccccc2=C1c1sc(=S)n(-c2ccc(O)cc2)c1O,"20 µM [falling, single point]",–

# Sorted by formula weight (low to high): three of the compounds above.
SMILES,AC50 [1],AC50 (measured here: IkBa-CBG green luminescence)
O=C1N=c2ccccc2=C1c1sc(=S)n(-c2ccc(O)cc2)c1O,"20 µM [falling, single point]",–
O=C(O)c1ccc(N/N=C/c2cn(Cc3ccccc3F)c3ccccc23)cc1,–,"0.631 µM [rising, full curve, poor fit]"
Cc1ccc2nc(N(CCCN(C)C)C(=O)c3ccc4ncsc4c3)sc2c1,"20 µM [falling, partial curve, poor fit]",–

# Following part:

SMILES,AC50 [1],AC50 (measured here: IkBa-CBG green luminescence)
COC(=O)CSc1nc(C)c2c(n1)CCCC2,"11.2 µM [rising, single point]",–
COc1cc(OC)cc(C(=O)Nc2ccc3nc4n(c(=O)c3c2)CCCCC4)c1,"3.98 µM [falling, partial curve]",–
COc1cccc(/C=N/NC(=O)CN(CCc2ccccc2)S(=O)(=O)c2ccc(NC(C)=O)cc2)c1,"1.3 µM [rising, partial curve, poor fit]",–
Fc1ccccc1COc1ccc(Br)cc1CNCC1CCCO1 (stereo unspecified),"25.1 µM [falling, single point]",–
O=C(NCc1ccccc1)C(c1cccnc1)N(C(=O)c1ccccn1)c1cccc(F)c1 (stereo unspecified),"7.94 µM [rising, partial curve, poor fit]",–
Cc1cc(N)n(-c2ccc(C(=O)O)cc2)n1,"7.08 µM [falling, full curve, poor fit]",–
COC(=O)C1=C(C)N(Cc2cccnc2)C(=O)/C1=C\c1sccc1C,"35.5 µM [falling, single point]",–
O=C1CCc2cc(NS(=O)(=O)c3ccccc3)cc3c2N1CCC3,"9.2 µM [falling, partial curve, poor fit]",–
Cc1ccc(NC(=O)C2CCN(c3ncnc4c3nc3n4CCCCC3)CC2)cc1Cl,"12.6 µM [rising, single point]",–
Cc1ccc(NC(=O)COC(=O)c2cc(=O)c3ccccc3o2)c(Br)c1,"0.164 µM [rising, full curve, poor fit]",–
Cc1ccc(NNC(=O)c2c(C)noc2C)cc1Cl,"35.5 µM [falling, single point]",–
C/C(=N\NC(=O)c1ccccc1O)c1cccc(NC(=O)c2ccccc2)c1,"5.01 µM [falling, partial curve]",–
CC(C)c1ccc(OCc2ccc(C(=O)O)o2)cc1,"11.2 µM [falling, partial curve]",–
Cn1c(=O)c2c(nc(Br)n2CCSc2nc3ccccc3o2)n(C)c1=O,"35.5 µM [falling, partial curve, poor fit]",–
C/C(=C\c1ccc(C)o1)C(=O)c1c(C)cc(C)[nH]c1=O,"35.5 µM [falling, single point]",–
CCCCCn1nc(C)c(/C=N\NC(=O)c2cc(C)oc2C)c1C,"20.6 µM [falling, partial curve]",–
CC(C)n1c(SCC(N)=O)nc2c1c(=O)[nH]c(=O)n2C,"10 µM [rising, partial curve, poor fit]",–
CCn1c(CSc2nc3ccccc3s2)nc2ccccc21,"2.59 µM [rising, single point]",–
Clc1ccccc1C1=Nn2c(nnc2-c2ccco2)SC1,"0.355 µM [rising, full curve, poor fit]",–
O=C(CCSCc1ccccc1F)NCCc1ccccc1,"6.31 µM [rising, partial curve, poor fit]",–
